From the supplement of paper PMC10735217
Structures can show the parent of a compound that is named as a salt. This is one part of the list. Single values are uncertain here, since repeats match poorly.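 In a drug-repurposing library screen, luminescence reads luciferase driven by eight TEAD-binding elements, stably integrated into human kidney-derived cells. Compounds scoring over five robust Z scores above the plate mean are called hits.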

System: HEK293A TEAD-LUC reporter
Experiment: TEAD-luciferase reporter activity (YAP activation), robust Z score vs plate; higher = stronger YAP/TEAD activation
Conditions: 24 h

SMILES	TEAD-luciferase reporter activity (compound concentration: 200 nM)	TEAD-luciferase reporter activity (compound concentration: 2 uM)	TEAD-luciferase reporter activity (compound concentration: 10 uM)
COc1cc(N)c(Cl)cc1C(=O)N[C@H]1CCN(CCC(=O)Nc2cccc3ncccc23)C[C@H]1OC	inactive: -2.04	inactive: -2.28	inactive: 0.792
C[C@@H]([C@H](C)O)[C@H](N)C(=O)O	inactive: 0.25	inactive: -0.736	inactive: -0.252
O=C(O)COc1nn(Cc2ccccc2)c2ccccc12 [bendazac lysinate]	inactive: -1.15	inactive: 1.68	inactive: 1.09
CCOC(=O)[C@H](CCc1ccccc1)N[C@@H](C)C(=O)N1[C@H](C(=O)O)C[C@H]2CCCC[C@@H]21 [Trandolapril]	inactive: -0.782	inactive: -1.41	inactive: 0.664
COCCOC(=O)C1=C(C)NC(C)=C(C(=O)OCCOC)C1c1ccc(C)o1	inactive: 3.34	inactive: -0.372	inactive: -0.371
CCNC(=O)c1nc(-c2ccnn2-c2ccc(C#N)cc2)c(C)n(-c2cccc(C(F)(F)F)c2)c1=O	inactive: -1.28	inactive: -0.306	inactive: -1.52
CNCCC(Oc1cccc2ccccc12)c1cccs1 (configuration not stated) [duloxetine hydrochloride]	inactive: -0.514	inactive: -0.813	inactive: 2.01
CCCCCCCC/C(=C\CCCCCCCC(=O)O)[N+](=O)[O-]	inactive: 1.37	inactive: 1.12	inactive: 0.482
O=C(c1cc(Cc2n[nH]c(=O)c3ccccc23)ccc1F)N1CCN(C(=O)C2CC2)CC1 [olaparib]	active: 9.11	inactive: -0.764	inactive: -1.03
CC/C=C\C/C=C\C/C=C\C/C=C\C/C=C\CCCC(=O)OCC [ethyl icosapentate]	inactive: -0.678	inactive: 0.0829	inactive: 3.22
COc1c(N2C[C@@H](N)C3(CC3)C2)c(F)cc2c(=O)c(C(=O)O)cn([C@@H]3C[C@@H]3F)c12	inactive: -0.142	inactive: -1.14	inactive: -0.443
COc1ccc(CC(=O)N2CCC(C(=O)N3CCC(N4Cc5ccccc5C4=O)CC3)CC2)cc1	inactive: -1.44		inactive: -1.1
N#Cc1ccc(N2N=C3c4ccc(C(=O)N5CCC(O)CC5)nc4CC[C@@H]3[C@@H]2C2CCCC2)cc1Cl	inactive: 0.0497	inactive: -1.4	inactive: 1.15
CN(C)C(=O)Nc1cc(CNc2ccccc2C(=O)Nc2ccc3cn(C)nc3c2)ccn1	inactive: 0.386	inactive: -0.818	inactive: 1.28
COc1ccccc1-n1c(CN2CCN(c3ccc(C)cc3)C(C)C2)nc2ccccc2c1=O (configuration not stated)	inactive: -2.2	inactive: -0.634	inactive: -0.356
CC1(C)C=C(C(=O)NCCCN2C(=O)c3ccccc3C2=O)C(C)(C)N1	inactive: 0.716	inactive: 0.426	inactive: 2.23

Some of these compounds in order of formula weight, low to high:
SMILES	TEAD-luciferase reporter activity (compound concentration: 200 nM)	TEAD-luciferase reporter activity (compound concentration: 2 uM)	TEAD-luciferase reporter activity (compound concentration: 10 uM)
O=C(c1cc(Cc2n[nH]c(=O)c3ccccc23)ccc1F)N1CCN(C(=O)C2CC2)CC1 [olaparib]	active: 9.11	inactive: -0.764	inactive: -1.03
COc1ccc(CC(=O)N2CCC(C(=O)N3CCC(N4Cc5ccccc5C4=O)CC3)CC2)cc1	inactive: -1.44		inactive: -1.1
N#Cc1ccc(N2N=C3c4ccc(C(=O)N5CCC(O)CC5)nc4CC[C@@H]3[C@@H]2C2CCCC2)cc1Cl	inactive: 0.0497	inactive: -1.4	inactive: 1.15

Carrying on.

SMILES	TEAD-luciferase reporter activity (compound concentration: 200 nM)	TEAD-luciferase reporter activity (compound concentration: 2 uM)	TEAD-luciferase reporter activity (compound concentration: 10 uM)
CCCOc1ccc(S(=O)(=O)NCCC2CCCN2C)cc1-c1nc2c(CCC)nn(C)c2c(=O)[nH]1 (configuration not stated) [udenafil]	inactive: -0.072	inactive: 1.36	inactive: -0.477
COc1ccc(-c2nnc(C(=O)N3CC(Oc4ccc(CN5CC6(COC6)C5)cc4)C3)o2)cc1	inactive: -0.459	inactive: -0.232	inactive: -0.306
C[N+]1(CCCCCCCCCCCCCCCC[N+]2(C)CCCC2)CCCC1	inactive: -2.62	inactive: 3.94	inactive: -0.0596
CCOc1ccccc1O[C@@H](c1ccccc1)[C@H]1CNCCO1 [reboxetine]	inactive: -0.725	inactive: 0.537	inactive: 0.435
CC[C@H](C)[C@H](N)C(=O)N[C@H]1CCC(=O)NCC(C(=O)N[C@@H](Cc2ccc(O)cc2)C(=O)N[C@@H](CCCNC(=N)N)C(=O)N[C@@H](CC(C)C)C(=O)N[C@@H](CCCNC(=N)N)C(=O)N[C@@H](Cc2ccc(O)cc2)C(N)=O)NC(=O)[C@@H]2CCCN2C(=O)[C@@H](NC(=O)[C@@H](N)[C@@H](C)CC)CCC(=O)NCC(C(=O)N[C@@H](Cc2ccc(O)cc2)C(=O)N[C@@H](CCCNC(=N)N)C(=O)N[C@@H](CC(C)C)C(=O)N[C@@H](CCCNC(=N)N)C(=O)N[C@@H](Cc2ccc(O)cc2)C(N)=O)NC(=O)[C@@H]2CCCN2C1=O (some centres not stated)	inactive: 0.382	inactive: -0.771	inactive: -1.27
CNC1CCN(C(=O)C[C@@H](Cc2ccccc2)C(=O)N[C@@H](CSC)C(=O)N[C@@H](CC2CCCCC2)[C@@H](O)C(=O)OC(C)C)CC1	inactive: 2.48	inactive: -0.713	inactive: 2.68
CC(=N)N1CCC(Oc2ccc(N(C/C(F)=C/c3cccc(C(=N)N)c3)S(=O)(=O)CC(=O)O)cc2C(N)=O)CC1	inactive: -0.658	inactive: -0.555	inactive: 1.27
Cc1ccc(NC(=O)c2ccc(CN3CC[C@H](N(C)C)C3)c(C(F)(F)F)c2)cc1Nc1nccc(-c2cncnc2)n1 [bafetinib]	inactive: -0.0704	inactive: 0.848	inactive: 4.39
Cn1c(=O)c(F)c(Nc2ccc(I)cc2F)c2c(=O)n(C[C@@H](O)CO)cnc21	inactive: 0.226	inactive: -2.24	inactive: -0.16
CC(C)(C)[C@H](NC(=O)[C@H](CCCc1ccc(Cl)cc1)CC(=O)NO)C(N)=O	inactive: -0.0577	inactive: -0.365	inactive: 0.751
O=C(OCc1ccccc1)c1ccccc1	inactive: -0.383	inactive: -1.23	inactive: -0.766
Cc1ccc(CNC2CCCCC2)c(C)c1	inactive: -1.8	inactive: -0.627	inactive: 2.51
CC(CC(=O)c1ccc(-c2ccc(F)cc2F)cc1)C(=O)O (configuration not stated) [Flobufen]	inactive: -0.833	inactive: 0.447	inactive: 1.76
Nc1ccc(-c2ccc(CN3CCOCC3)nc2)c2ccccc12	inactive: 0.764	inactive: -0.538	inactive: -0.231
c1ccc2c(c1)c1c(N3CCCC3)nc(N3CCCC3)nc1n2CCN1CCOCC1	inactive: 0.155	inactive: 1.17	inactive: -0.667
